Our source for the binding values is paper PMC11006773.

Chains of the proteins cited; added tags and fusions are not shown.
UniProt Q91YI4: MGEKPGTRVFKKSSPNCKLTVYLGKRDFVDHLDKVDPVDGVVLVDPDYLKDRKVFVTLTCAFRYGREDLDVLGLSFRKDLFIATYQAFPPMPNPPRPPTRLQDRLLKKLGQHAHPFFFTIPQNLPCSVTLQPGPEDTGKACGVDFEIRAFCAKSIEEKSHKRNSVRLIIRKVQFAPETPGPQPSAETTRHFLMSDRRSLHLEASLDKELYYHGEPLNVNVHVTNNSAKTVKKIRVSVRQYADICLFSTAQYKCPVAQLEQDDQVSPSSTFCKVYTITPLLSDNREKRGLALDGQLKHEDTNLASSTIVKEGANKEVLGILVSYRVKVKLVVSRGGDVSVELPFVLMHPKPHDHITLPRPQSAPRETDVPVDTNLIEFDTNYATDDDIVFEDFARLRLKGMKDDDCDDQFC
UniProt Q08857: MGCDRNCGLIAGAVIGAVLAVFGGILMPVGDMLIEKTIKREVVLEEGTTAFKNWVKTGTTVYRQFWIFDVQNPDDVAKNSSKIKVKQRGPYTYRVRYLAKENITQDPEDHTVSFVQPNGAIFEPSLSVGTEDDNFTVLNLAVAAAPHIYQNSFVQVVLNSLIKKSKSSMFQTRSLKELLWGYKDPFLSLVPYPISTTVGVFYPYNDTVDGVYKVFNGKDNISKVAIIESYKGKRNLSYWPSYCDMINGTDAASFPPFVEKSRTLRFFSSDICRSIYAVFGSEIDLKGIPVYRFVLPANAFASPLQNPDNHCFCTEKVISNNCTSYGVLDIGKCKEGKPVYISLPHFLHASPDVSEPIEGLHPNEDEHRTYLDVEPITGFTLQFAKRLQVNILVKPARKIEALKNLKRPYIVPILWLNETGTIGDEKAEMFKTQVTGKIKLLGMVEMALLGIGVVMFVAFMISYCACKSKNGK

Results are given in words; binding and its absence hold for the method and conditions named. In cells and extracts the contact can be indirect. Some binding calls cover weakened binding; strength is not graded here.

Test [1] addresses T1, GPR120 (mouse (endogenous in RAW 264.7)) (UniProt Q7TMA4).
T1 sequence: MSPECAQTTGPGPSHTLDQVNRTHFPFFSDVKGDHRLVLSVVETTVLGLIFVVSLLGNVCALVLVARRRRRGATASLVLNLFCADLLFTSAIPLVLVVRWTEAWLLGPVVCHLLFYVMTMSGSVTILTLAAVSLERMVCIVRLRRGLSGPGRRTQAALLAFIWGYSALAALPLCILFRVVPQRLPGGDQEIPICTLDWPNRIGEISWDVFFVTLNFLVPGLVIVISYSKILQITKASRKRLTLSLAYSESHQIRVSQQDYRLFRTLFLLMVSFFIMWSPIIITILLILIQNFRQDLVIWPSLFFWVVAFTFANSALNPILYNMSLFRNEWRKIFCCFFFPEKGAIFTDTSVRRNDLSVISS
Put plainly: co-IP; RAW 264.7 cells treated with NKS3 (50 µM for 2 h) and then LPS (10 ng/ml for 24 h); lysates immunoprecipitated with anti-GPR120 antibodies, CD36 and GPR120 detected by Western blotting. (In general: A western blot detects proteins with antibodies after separation by electrophoresis.)

Test [2] addresses T1, GPR120 (mouse (endogenous in RAW 264.7)). Put plainly: proximity ligation; RAW 264.7 cells with NKS3, fixed in 4% PFA, permeabilised with 0.2% Triton; anti-CD36 and anti-GPR120 primary antibodies, Duolink In Situ Red kit; non-treated cells and cells with CD36 or GPR120 knocked down by siRNA.
For test [3], the target named is β-arrestin2 (mouse (endogenous in RAW 264.7)) (UniProt Q91YI4). As to the kind of experiment: co-IP; RAW 264.7 cells treated with NKS3 and LPS; lysates immunoprecipitated for β-arrestin, TAB1 detected by Western blotting.

In the case of “CD36 (from UniProt Q08857 1-472) (receptor)”, the binding entry in test [1] and in test [2] was “binds” throughout.

B1: TAB1 (protein, UniProt Q8CF89 1-502)
chain: MAAQRRSLLQSEQQPSWTDDLPLCHLSGVGSASNRSYSADGKGTESHPPEDNWLKFRSENNCFLYGVFNGYDGNRVTNFVAQRLSAELLLGQLNTEHTEADVRRVLLQAFDVVERSFLESIDDALAEKASLQSQLPEGVPQHQLPPQYQKILERLKALEREISGGAMAVVAVLLNSKLYVANVGTNRALLCKSTVDGLQVTQLNMDHTTENEDELFRLSQLGLDAGKIKQMGVICGQESTRRIGDYKVKYGYTDIDLLSAAKSKPIIAEPEIHGAQPLDGVTGFLVLMSEGLYKALEAAHGPGQANQEIAAMIDTEFAKQTSLDAVAQAVVDRVKRIHSDTFASGGERAKFCPRHEDMTLLVRNFGYPLGEMSQPTPTPAPGGRVYPVSVPYSSAQSTSKTSVTLSLVMPSQGQMVNGSHSASTLDEATPTLTNQSPTLTLQSTNTHTQSSSSSSDGGLFRSRPAHSLPPGEDGRVEPYVDFAEFYRLWSVDHGEQSVMTAP
Consider B1, for which the binding entry in test [3] is reported as “binds”.
